Data taken from the supplement of paper PMC10735217.
Structures can show the parent of a compound that is named as a salt. The list shows a part of the results. Single values are uncertain here, since repeats match poorly.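 The human kidney-derived cells carry a stably integrated construct of eight TEAD-binding elements driving luciferase, read by luminescence in a drug-repurposing library screen. A compound counts as a hit when its signal is more than five robust Z scores above the plate mean.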

Test system: HEK293A TEAD-LUC reporter
Assay: TEAD-luciferase reporter activity (YAP activation), robust Z score vs plate; higher = stronger YAP/TEAD activation
Conditions: 24 h

| SMILES | TEAD-luciferase reporter activity (compound concentration: 200 nM) | TEAD-luciferase reporter activity (compound concentration: 2 uM) | TEAD-luciferase reporter activity (compound concentration: 10 uM) |
| --- | --- | --- | --- |
| C[C@H]1C[C@H]2[C@@H]3CCC4=CC(=O)C=C[C@]4(C)[C@@]3(F)[C@@H](O)C[C@]2(C)[C@@]1(OC(=O)c1ccccc1)C(=O)CO | inactive: 1.53 | inactive: -0.491 | inactive: 4.72 |
| O=C(OCCOCCO)c1ccccc1Nc1cccc(C(F)(F)F)c1 [etofenamate] | inactive: -1.39 | inactive: 1.01 | inactive: -0.915 |
| CC(C)S(=O)(=O)N[C@H]1COC[C@H]1Oc1ccc(-c2ccc(C#N)s2)cc1 | inactive: -0.879 | inactive: -0.0318 | inactive: 1.73 |
| COc1cccc(C(=O)O)c1OC(C)=O | inactive: -0.901 | inactive: 0.023 | inactive: 1.27 |
| CC1(C)O[C@@H]2C[C@H]3[C@@H]4CCC5=CC(=O)CC[C@]5(C)[C@@]4(F)[C@@H](O)C[C@]3(C)[C@]2(C(=O)CCl)O1 [Halcinonide] | inactive: -0.563 | inactive: 0.606 | inactive: -0.024 |
| O=C(Nc1ccc(OC(F)(F)F)cc1)c1sccc1NCc1ccnc2ccccc12 | active: 7.2 | active: 5.64 | inactive: 0.847 |
| Cc1cc(-c2ccc(/N=N/c3c(S(=O)(=O)O)cc4cc(S(=O)(=O)O)cc(N)c4c3O)c(C)c2)ccc1/N=N/c1c(S(=O)(=O)O)cc2cc(S(=O)(=O)O)cc(N)c2c1O | inactive: -1.3 | inactive: -3.54 | inactive: -2.34 |
| CCC(C)CCCCC(=O)N[C@@H](CCN)C(=O)N[C@H](C(=O)N[C@@H](CCN)C(=O)N[C@H]1CCNC(=O)[C@H]([C@@H](C)O)NC(=O)[C@H](CCN)NC(=O)[C@H](CCN)NC(=O)[C@H](CC(C)C)NC(=O)[C@@H](CC(C)C)NC(=O)[C@H](CCN)NC1=O)[C@@H](C)O (some centres undefined) [Colistin sulfate] | inactive: -0.146 | inactive: -0.477 | inactive: 2.8 |
| COC(=O)[C@H](CC(C)C)NC(=O)[C@H](Cc1cnc[nH]1)NC(=O)[C@@H](C)NC(=O)[C@@H](NC(=O)[C@H](C)NC(=O)[C@H](Cc1c[nH]c2ccccc12)NC(=O)[C@H](CCC(N)=O)NC(=O)[C@H](N)Cc1c(F)c(F)c(F)c(F)c1F)C(C)C | inactive: -0.592 | inactive: 0.00727 | inactive: 0.135 |
| OC[C@H]1OC2(CO)OC[C@@]3(O[C@H](CO)[C@@H](O)[C@@H]3O)O[C@H]2[C@@H]1O (some centres undefined) [Difructose Anhydride III] | inactive: -1.13 | inactive: -0.0888 | inactive: 2.96 |
| Cn1nc(NCCCOc2cccc3c2CCC3N2CCCCC2)nc1N (centres undefined) | inactive: -2.79 | inactive: 0.227 | inactive: 1.91 |
| CCS(=O)(=O)c1ccc(CNC(=O)c2cnc3c(c2)CN(C[C@H]2CC[C@H](C(F)(F)F)CC2)[C@H]3C(C)C)nc1 | inactive: 0.531 | inactive: -0.812 | inactive: -1.27 |
| COc1ccc(-n2nc(CCC(=O)N(C)O)cc2-c2ccc(Cl)cc2)cc1 [tepoxalin] | inactive: -1.17 | inactive: -2.08 | inactive: 0.715 |
| CCc1nc2c(C)cc(C)nc2n1Cc1ccc2nc(-c3ccccc3C(=O)O)ccc2c1 | inactive: -0.716 | inactive: -0.0607 | inactive: -0.548 |
| COc1ccc(F)cc1-c1ccc(CN2CCC(NC(=O)c3ccccc3Cl)C2)cc1 (centres undefined) | active: 5.14 |  | inactive: 0.464 |
| CC(C)(C)N[C@@H]1C=CC(c2ccccc2)(c2ccccc2)C1 | inactive: -1.89 | inactive: -1.45 | inactive: -0.58 |
| CC1CCCC(OC(=O)C[N+](C)(C)CCCCCCCCCC[N+](C)(C)CC(=O)C2CC(C)CCC2C(C)C)C1 (centres undefined) | inactive: -0.715 | inactive: -0.905 | inactive: 2.34 |
| Cc1cc2cn([C@H]3C[C@H](O)[C@@H](CO)O3)c(=O)nc2o1 | inactive: -0.81 | inactive: -1.9 | inactive: 0.398 |
| N#Cc1ccc(NCCNCC(=O)N2CCC[C@H]2C#N)nc1 | active: 6.05 | inactive: 1.08 | inactive: 0.752 |
| CN(C)/C=N/c1c(I)cc(I)c(CCC(=O)O)c1I | inactive: -1.83 | inactive: -0.439 | inactive: -1.79 |
| Cc1cc(F)ccc1C1CNCCN1C(=O)N(C)C(C)c1cc(C(F)(F)F)cc(C(F)(F)F)c1 (centres undefined) | inactive: 0.0511 | inactive: -1.16 | inactive: 2.23 |
| CC(=O)O[C@]1(C(C)=O)CCC2[C@@H]3C[C@H](C)C4=CC(=O)CC[C@]4(C)C3CC[C@@]21C (some centres undefined) [Diviseq] | inactive: 1.29 | inactive: 1.51 | inactive: -0.128 |
| COc1c(C)cnc(Cn2cnc3c(Cl)nc(N)nc32)c1C | inactive: -0.675 | inactive: -1.31 | inactive: 0.703 |
| CS(=O)(=O)Nc1ccc2c(c1)C(=O)CC1(CCN(C3CCc4cc(C#N)ccc4C3)CC1)O2 (centres undefined) | inactive: -0.114 | inactive: -1.07 | inactive: -1.57 |
| CCC(C)C(=O)O[C@H]1[C@H](O)[C@H]2[C@@H](CN3C[C@@H](C)CC[C@H]3[C@@]2(C)O)[C@@H]2C[C@]34O[C@@]5(O)[C@@H](OC(=O)C(C)(O)C(C)OC(C)=O)CC[C@@]3(C)[C@@H]5C[C@@H](OC(C)=O)[C@H]4[C@@]21O (some centres undefined) | inactive: -0.64 | inactive: 0.872 | inactive: -0.654 |

2 entries from above, with each value named:
Cc1cc(-c2ccc(/N=N/c3c(S(=O)(=O)O)cc4cc(S(=O)(=O)O)cc(N)c4c3O)c(C)c2)ccc1/N=N/c1c(S(=O)(=O)O)cc2cc(S(=O)(=O)O)cc(N)c2c1O
  TEAD-luciferase reporter activity (compound concentration: 200 nM): inactive: -1.3
  TEAD-luciferase reporter activity (compound concentration: 2 uM): inactive: -3.54
  TEAD-luciferase reporter activity (compound concentration: 10 uM): inactive: -2.34
COc1ccc(-n2nc(CCC(=O)N(C)O)cc2-c2ccc(Cl)cc2)cc1 [tepoxalin]
  TEAD-luciferase reporter activity (compound concentration: 200 nM): inactive: -1.17
  TEAD-luciferase reporter activity (compound concentration: 2 uM): inactive: -2.08
  TEAD-luciferase reporter activity (compound concentration: 10 uM): inactive: 0.715

(cont.)

| SMILES | TEAD-luciferase reporter activity (compound concentration: 200 nM) | TEAD-luciferase reporter activity (compound concentration: 2 uM) | TEAD-luciferase reporter activity (compound concentration: 10 uM) |
| --- | --- | --- | --- |
| C[C@H]1[C@H](C)CC[C@]2(C)CC[C@]3(C)C(=CC[C@@H]4[C@@]5(C)CC[C@@H](O)[C@](C)(C(=O)O)[C@@H]5CC[C@]43C)[C@H]12 [beta-Boswellic acid] | inactive: -0.769 | inactive: -0.394 | inactive: 4.73 |
| CNc1nc(-c2cccc(NC(=O)c3ccc(C(=O)O)cc3)c2)c2cc(OC)c(OC)cc2n1 | inactive: -0.654 | inactive: -0.615 | inactive: 2.91 |
| O=C(CC(CSc1ccccc1)C(=O)O)c1ccc(-c2ccc(Cl)cc2)cc1 (centres undefined) | inactive: -1.1 | inactive: -1.21 | active: 7.63 |
| Cc1[nH]cnc1-c1ccc(Cl)cc1 [lofemizole] | inactive: -0.405 | inactive: -1.31 | inactive: -0.504 |
| Cc1cccc(N2CCN(CCCOc3ccc4ccc(=O)[nH]c4c3)CC2)c1C | inactive: -0.863 | inactive: -0.734 | inactive: -1.29 |
| Cc1c(N)nc([C@H](CC(N)=O)NC[C@H](N)C(N)=O)nc1C(=O)N[C@H](C(=O)N[C@H](C)[C@@H](O)[C@H](C)C(=O)N[C@H](C(=O)NCCc1nc(-c2nc(C(=O)NCCCNCCCCN)cs2)cs1)[C@@H](C)O)[C@@H](O[C@@H]1O[C@@H](CO)[C@@H](O)[C@H](O)[C@@H]1O[C@@H]1O[C@H](CO)[C@@H](O)[C@H](OC(N)=O)[C@@H]1O)c1cnc[nH]1 [Zhengguangmycin A5] | inactive: -1.44 | inactive: -0.649 | inactive: -1.18 |
| COc1ccc(C(=O)NCc2cccnc2)cc1C(=O)NCc1cccnc1 [picotamide] | inactive: -0.784 | inactive: -1.86 | inactive: -2.04 |
| CCN(CC)CC(O)COc1ccccc1C1CC2CCC1C2 (centres undefined) | inactive: 0.6 | inactive: -1.31 | inactive: 1.48 |
| O=C(C1CCCC1)N1CCC(n2c(=O)[nH]c3ccccc32)CC1 | inactive: -1.58 |  | inactive: 1.59 |
| CCN(CC)CCOc1ccccc1C(=O)CCc1ccccc1 | inactive: 0.017 |  | inactive: -1.62 |
| CCN(CC)CCOc1ccccc1C(=O)CCc1ccccc1 [etafe   , Guidotti] |  | inactive: -1.13 |  |
| COc1cc2nc(N3CCNCC3)nc(N)c2cc1OC | inactive: -0.184 | inactive: 2.6 | inactive: -0.239 |
| Cc1ccc2c(=O)c3cccc(CC(=O)O)c3oc2c1C [Vadimezan] |  | inactive: -0.643 |  |
| Cc1ccc2c(=O)c3cccc(CC(=O)O)c3oc2c1C | inactive: -1.35 |  | inactive: 0.346 |
| CCO/N=C(\C)c1ccc2c(c1)ncn2-c1cccc(-c2cccnc2)c1 | inactive: -1.57 | inactive: -0.851 | inactive: 0.505 |
| Cc1ccc2c(-c3ccc(F)cc3)nc(=O)n(C(C)C)c2c1 | inactive: -0.0568 | inactive: -1.58 | inactive: 0.314 |
| O=C(O)c1cc(/N=N/c2ccc(O)c(C(=O)O)c2)ccc1O [Olsalazine disodium] | inactive: -1.17 |  | inactive: 0.227 |
| O=C(O)c1cc(/N=N/c2ccc(O)c(C(=O)O)c2)ccc1O [olsalazine] |  | inactive: -0.94 |  |
| CC(CCN1CCN(c2ccc(F)cc2)CC1)NC(=O)c1cccnc1 (centres undefined) | inactive: -0.188 | inactive: -2.07 | inactive: 0.219 |
| COCC(=O)Nc1ccc(/N=C(\C)N(C)C)cc1 | inactive: -0.878 | inactive: 0.634 | inactive: 0.816 |
| C#CC(N)CCC(C)N (centres undefined) | inactive: -0.402 | inactive: -1.17 | inactive: -0.0698 |
| CC(C)(CO)[C@@H](O)C(=O)NCCC(=O)NCCSc1c2c(c3ccccc3c1O)NC(=O)CS2 | inactive: -0.915 | inactive: 1.06 | inactive: 1.22 |
| O=C1c2cc(-c3ccc(OC(F)(F)F)cc3)ccc2OCCN1Cc1ncccn1 [Eleclazine] | inactive: -1.3 | inactive: -0.261 | inactive: -0.199 |
| CC(C)COC(=O)C1(F)C(=O)NC(=O)NC1O/N=C/c1ccco1 (centres undefined) | inactive: 1.73 | inactive: -1.28 | inactive: -1.24 |
| CC(=O)N1CCC(=C2c3ccc(Cl)cc3CCc3cccnc32)CC1 | inactive: -2.09 | inactive: -0.143 | inactive: -0.0382 |
